Source: US20020031761A1, “Binding moieties for human parvovirus B19” (priority 1998, published 2002)
Results are given in words; binding and its absence hold for the method and conditions named. Some entries that bind do so weakly or less than the wild type.

target: purified, recombinant parvovirus B19 capsid proteins VP1 and VP2 (VP1-VP2) (human parvovirus B19) (UniProt P07299); assay: phage ELISA, constant phage against decreasing VP1-VP2 coat

Binder	binding
FFCGFWHDCHP (peptide, not shown: large carriers) [TN7 isolate A07]	binds
FSCLWFPFCPD (peptide, not shown: large carriers) [TN7 isolate A12]	binds
FFCALWPSCHH (peptide, not shown: large carriers) [TN7 isolate B11]	binds
LFCHFWYNCDF (peptide, not shown: large carriers) [TN7 isolate B12]	binds
LFCSFWYNCDA (peptide, not shown: large carriers) [TN7 isolate D11]	binds
LFCSFWYNCDD (peptide, not shown: large carriers) [TN7 isolate F12]	binds
LFCRFWYNCSA (peptide, not shown: large carriers) [TN7 isolate H09]	binds
FFCQYWYNCD (peptide, not shown: large carriers) [TN7 isolate C11]	binds
FCRFWYGCHP (peptide, not shown: large carriers) [TN7 isolate E11]	binds
FFCSFWHGGCDD (peptide, not shown: large carriers) [A01-TN8 phage isolate]	binds
AFCHFWFHGCDD (peptide, not shown: large carriers) [TN8 isolate A05]	binds
HFCHFWFGGCPH (peptide, not shown: large carriers) [TN8 isolate D06]	binds
FCWLWPSSDCF (peptide, not shown: large carriers) [TN9 isolate D01]	binds
FCWLWPAHSCH (peptide, not shown: large carriers) [H03-TN9 phage isolate]	binds
FCHLWWPFQCA (peptide, not shown: large carriers) [TN9 isolate E03]	binds
FCQLWWPFQCA (peptide, not shown: large carriers) [TN9 isolate A06]	binds
LCPAHWQFWCD (peptide, not shown: large carriers) [TN9 isolate F01]	binds
